Measurements reported in the supplement of paper PMC12067093, “Discovery and optimisation of a covalent ligand for TRIM25 and its application to targeted protein ubiquitination” (Chemical Science, 2025).
The other results are listed elsewhere or left out.

Protein sequences, listed by entry. Tags and fused reporters are not part of them. Lines headed by an entry give the natural chain unless they say otherwise; changes in a name come on top.
UniProt Q9NWT6: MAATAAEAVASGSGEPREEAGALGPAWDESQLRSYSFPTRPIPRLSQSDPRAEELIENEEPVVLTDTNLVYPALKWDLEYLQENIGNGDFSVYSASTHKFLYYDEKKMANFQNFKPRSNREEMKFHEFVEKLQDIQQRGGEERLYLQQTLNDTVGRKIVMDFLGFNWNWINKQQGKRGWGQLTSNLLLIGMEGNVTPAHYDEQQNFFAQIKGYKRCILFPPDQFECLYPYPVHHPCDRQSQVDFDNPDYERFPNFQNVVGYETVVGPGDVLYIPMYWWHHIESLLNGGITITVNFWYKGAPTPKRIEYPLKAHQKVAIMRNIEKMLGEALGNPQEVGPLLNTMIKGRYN
UniProt O15379: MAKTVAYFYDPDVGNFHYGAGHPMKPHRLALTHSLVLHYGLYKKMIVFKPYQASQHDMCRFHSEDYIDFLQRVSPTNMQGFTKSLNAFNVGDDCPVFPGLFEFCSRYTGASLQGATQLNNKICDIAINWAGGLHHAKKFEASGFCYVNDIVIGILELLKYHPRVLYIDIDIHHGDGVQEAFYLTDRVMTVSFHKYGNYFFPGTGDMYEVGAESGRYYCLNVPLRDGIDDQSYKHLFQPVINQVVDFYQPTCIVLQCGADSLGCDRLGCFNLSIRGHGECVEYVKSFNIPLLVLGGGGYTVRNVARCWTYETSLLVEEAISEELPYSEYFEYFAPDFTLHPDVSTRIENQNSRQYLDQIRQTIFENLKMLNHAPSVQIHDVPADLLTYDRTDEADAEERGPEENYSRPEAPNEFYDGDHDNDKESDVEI
UniProt Q7Z4H3: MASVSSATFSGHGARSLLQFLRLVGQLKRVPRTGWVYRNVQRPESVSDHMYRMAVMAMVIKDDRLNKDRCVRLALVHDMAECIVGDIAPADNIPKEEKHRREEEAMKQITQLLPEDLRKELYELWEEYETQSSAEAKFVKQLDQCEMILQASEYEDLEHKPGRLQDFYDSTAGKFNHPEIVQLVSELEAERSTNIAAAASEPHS
UniProt O95714: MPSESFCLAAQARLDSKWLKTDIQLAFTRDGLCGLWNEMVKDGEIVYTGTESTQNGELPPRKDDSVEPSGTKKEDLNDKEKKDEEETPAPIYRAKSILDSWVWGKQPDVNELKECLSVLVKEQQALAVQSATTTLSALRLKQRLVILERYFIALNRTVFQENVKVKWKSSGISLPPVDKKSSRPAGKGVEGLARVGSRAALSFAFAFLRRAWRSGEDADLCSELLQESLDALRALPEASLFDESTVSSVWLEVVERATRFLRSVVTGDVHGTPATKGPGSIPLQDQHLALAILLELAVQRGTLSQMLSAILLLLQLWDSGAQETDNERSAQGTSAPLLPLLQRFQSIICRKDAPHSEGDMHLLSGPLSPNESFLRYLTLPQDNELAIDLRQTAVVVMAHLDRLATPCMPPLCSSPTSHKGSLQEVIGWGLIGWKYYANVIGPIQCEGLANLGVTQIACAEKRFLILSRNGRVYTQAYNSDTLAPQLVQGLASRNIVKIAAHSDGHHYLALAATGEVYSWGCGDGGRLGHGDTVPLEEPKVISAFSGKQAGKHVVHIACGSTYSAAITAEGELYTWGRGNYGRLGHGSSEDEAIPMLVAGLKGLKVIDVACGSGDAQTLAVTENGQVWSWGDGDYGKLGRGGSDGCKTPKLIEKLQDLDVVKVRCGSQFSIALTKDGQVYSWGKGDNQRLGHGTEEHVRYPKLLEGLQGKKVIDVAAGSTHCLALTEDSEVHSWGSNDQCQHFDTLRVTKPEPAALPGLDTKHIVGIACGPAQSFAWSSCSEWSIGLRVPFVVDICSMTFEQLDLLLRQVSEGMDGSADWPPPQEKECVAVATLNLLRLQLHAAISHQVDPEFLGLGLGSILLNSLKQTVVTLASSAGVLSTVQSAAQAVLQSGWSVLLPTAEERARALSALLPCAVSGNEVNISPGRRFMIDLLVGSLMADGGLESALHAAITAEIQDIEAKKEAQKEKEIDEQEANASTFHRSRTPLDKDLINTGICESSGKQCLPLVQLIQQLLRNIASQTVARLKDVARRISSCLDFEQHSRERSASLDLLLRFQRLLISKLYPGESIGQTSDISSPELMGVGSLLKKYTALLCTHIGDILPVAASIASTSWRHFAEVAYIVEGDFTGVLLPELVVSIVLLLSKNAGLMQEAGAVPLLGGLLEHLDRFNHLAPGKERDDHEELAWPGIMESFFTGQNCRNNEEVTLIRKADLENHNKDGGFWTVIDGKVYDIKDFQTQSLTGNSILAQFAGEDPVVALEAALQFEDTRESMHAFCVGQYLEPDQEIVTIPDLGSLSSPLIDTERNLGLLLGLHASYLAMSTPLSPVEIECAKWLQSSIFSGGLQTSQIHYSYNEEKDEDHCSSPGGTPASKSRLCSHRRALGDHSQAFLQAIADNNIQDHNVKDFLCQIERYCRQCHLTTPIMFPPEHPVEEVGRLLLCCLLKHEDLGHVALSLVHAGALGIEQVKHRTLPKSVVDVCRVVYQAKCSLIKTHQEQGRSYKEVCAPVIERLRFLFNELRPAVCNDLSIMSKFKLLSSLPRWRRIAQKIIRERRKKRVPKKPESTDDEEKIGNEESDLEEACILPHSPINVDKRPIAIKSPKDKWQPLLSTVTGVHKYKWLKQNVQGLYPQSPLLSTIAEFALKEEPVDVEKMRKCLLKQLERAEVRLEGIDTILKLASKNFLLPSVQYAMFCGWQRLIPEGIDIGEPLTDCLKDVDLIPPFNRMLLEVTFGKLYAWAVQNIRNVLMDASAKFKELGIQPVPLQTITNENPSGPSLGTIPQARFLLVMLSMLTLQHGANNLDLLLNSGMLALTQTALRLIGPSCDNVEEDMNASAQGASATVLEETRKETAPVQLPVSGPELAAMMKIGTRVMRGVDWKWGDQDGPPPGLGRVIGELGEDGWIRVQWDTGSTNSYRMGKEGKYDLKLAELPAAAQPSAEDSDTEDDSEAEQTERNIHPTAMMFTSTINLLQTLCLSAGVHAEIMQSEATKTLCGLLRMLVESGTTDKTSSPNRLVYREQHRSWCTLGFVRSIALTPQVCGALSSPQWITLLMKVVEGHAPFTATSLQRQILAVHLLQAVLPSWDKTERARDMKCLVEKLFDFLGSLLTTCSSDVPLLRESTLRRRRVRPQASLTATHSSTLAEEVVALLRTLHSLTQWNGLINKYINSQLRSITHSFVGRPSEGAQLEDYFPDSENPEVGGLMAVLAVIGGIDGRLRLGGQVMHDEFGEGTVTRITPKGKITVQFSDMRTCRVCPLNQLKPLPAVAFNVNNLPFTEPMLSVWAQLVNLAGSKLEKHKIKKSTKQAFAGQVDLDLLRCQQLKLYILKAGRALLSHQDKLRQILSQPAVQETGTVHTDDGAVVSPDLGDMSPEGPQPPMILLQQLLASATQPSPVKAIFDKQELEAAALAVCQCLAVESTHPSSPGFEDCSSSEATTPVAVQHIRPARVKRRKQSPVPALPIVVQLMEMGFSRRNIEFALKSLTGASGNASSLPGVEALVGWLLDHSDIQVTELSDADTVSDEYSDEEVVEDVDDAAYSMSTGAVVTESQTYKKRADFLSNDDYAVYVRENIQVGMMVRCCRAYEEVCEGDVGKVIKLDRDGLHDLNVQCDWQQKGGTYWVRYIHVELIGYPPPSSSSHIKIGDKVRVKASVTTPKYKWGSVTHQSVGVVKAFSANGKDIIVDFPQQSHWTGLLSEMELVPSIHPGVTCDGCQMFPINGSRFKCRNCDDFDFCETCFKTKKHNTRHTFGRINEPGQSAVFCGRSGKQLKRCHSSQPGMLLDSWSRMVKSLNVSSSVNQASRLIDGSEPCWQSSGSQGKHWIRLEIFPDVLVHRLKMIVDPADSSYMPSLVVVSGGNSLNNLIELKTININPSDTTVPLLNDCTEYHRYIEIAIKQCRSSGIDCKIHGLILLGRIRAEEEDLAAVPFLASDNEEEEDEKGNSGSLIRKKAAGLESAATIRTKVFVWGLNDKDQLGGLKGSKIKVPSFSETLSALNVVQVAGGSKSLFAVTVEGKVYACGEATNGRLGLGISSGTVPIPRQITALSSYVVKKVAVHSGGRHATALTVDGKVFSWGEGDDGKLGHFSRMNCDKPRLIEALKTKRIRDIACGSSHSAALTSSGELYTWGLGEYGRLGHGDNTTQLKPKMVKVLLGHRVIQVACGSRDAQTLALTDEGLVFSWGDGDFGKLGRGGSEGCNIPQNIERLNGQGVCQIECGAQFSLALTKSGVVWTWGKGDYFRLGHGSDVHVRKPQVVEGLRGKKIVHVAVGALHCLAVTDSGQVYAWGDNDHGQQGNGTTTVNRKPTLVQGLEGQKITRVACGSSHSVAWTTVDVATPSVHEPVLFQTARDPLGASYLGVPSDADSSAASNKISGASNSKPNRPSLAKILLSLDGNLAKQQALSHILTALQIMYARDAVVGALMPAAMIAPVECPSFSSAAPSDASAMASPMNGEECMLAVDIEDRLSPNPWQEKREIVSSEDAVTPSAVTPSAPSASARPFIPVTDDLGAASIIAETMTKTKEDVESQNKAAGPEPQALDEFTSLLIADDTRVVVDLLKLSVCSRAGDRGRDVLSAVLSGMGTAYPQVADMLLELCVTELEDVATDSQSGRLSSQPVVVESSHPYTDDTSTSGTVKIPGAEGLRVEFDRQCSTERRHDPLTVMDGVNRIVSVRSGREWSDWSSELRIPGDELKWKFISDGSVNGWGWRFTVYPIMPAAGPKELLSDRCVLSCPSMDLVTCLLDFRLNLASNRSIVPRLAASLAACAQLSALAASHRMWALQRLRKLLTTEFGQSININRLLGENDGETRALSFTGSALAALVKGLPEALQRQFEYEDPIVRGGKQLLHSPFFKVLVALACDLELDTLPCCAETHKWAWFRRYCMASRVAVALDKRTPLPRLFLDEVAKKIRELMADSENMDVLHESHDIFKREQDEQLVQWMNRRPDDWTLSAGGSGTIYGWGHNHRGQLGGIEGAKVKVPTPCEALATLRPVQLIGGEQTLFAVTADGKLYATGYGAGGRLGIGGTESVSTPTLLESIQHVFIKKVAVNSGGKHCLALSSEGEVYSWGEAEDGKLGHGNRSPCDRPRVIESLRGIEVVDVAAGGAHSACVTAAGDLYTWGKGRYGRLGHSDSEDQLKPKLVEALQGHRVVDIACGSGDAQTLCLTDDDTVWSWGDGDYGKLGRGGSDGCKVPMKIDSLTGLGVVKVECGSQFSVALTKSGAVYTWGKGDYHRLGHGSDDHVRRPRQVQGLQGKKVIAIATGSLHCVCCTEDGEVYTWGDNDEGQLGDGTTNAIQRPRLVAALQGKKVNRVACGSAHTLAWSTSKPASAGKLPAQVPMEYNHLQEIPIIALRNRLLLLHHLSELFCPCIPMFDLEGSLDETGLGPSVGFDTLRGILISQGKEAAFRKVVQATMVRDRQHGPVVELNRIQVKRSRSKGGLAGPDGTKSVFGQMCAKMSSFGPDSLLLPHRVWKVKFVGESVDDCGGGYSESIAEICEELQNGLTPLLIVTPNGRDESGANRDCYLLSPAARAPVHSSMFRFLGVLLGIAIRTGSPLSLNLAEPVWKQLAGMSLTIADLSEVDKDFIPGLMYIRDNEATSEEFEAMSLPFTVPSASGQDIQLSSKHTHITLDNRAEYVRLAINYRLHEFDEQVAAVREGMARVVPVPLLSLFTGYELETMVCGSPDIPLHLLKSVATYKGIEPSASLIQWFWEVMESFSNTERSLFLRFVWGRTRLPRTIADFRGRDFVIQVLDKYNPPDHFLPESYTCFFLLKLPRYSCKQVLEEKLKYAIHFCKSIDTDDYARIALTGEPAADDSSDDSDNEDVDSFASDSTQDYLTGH
UniProt P04222, whole entry, looked up: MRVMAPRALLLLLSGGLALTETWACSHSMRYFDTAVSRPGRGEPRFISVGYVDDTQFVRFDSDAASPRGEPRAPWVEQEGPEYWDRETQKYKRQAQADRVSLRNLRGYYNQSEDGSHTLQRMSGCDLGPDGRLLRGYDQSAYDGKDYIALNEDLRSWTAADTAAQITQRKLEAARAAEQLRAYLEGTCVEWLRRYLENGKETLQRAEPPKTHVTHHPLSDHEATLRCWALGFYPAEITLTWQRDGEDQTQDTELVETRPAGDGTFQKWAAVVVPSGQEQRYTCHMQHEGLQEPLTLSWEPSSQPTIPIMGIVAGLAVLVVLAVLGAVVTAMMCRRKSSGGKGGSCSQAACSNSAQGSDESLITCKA
UniProt Q15011: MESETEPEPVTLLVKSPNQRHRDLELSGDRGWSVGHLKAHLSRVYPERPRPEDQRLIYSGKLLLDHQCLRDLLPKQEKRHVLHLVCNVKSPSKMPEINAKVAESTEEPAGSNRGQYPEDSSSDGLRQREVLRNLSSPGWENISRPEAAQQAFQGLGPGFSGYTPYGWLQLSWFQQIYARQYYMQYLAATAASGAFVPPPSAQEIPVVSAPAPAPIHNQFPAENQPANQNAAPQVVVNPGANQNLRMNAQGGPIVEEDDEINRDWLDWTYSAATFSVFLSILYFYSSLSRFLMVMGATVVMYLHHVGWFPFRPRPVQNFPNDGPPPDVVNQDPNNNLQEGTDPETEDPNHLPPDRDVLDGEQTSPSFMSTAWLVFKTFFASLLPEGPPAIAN

Compound: CC1Cc2ccccc2N1C(=O)C1CCCN(C1)C(=O)CCl (mixture of isomers) [TRIM25 ligand 11 (diastereomer mixture)]
Experiment: probe-labelled cysteine peptide fold change vs DMSO (competition) (log2 fold change); higher = less target engagement (more negative = stronger competition)
Conditions: THP-1, incubation time: 4 h
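Also: competitive chemoproteomic profiling in live THP-1 cells with an iodoacetamide desthiobiotin (IA-DTB) probe, comparing probe-labelled peptide intensities in compound-treated cells against DMSO-treated controls.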

| Target | probe-labelled cysteine peptide fold change (10 µM) | probe-labelled cysteine peptide fold change (50 µM) |
| --- | --- | --- |
| HDAC10_Q969S8_102_EELQALSGQFDAIYFHPSTFHCAR (UniProt Q969S8) | 0.0847 | -0.172 |
| HDAC8_Q9BY41_352_TLSSEIPDHEFFTAYGPDYVLEITPSCRPDR (UniProt Q9BY41) | -0.222 | 0.0231 |
| HIF1AN_Q9NWT6_216+236_CILFPPDQFECLYPYPVHHPCDR (UniProt Q9NWT6) | 0.173 | 0.147 |
| HIP1_O00291_430_QQAADDCEFLR (UniProt O00291) | -0.06 | -0.194 |
| HDAC3_O15379_279_GHGECVEYVK (UniProt O15379) | 0.0364 | 0.0441 |
| HDLBP_Q00341_636_RANCEAAR (UniProt Q00341) | 0.136 | 0.13 |
| HEATR1_Q9H583_1263_QLILSCLLNICQK (UniProt Q9H583) | -0.253 | -0.21 |
| HECTD4_Q9Y4D8_2097_VYFTYCGQR (UniProt Q9Y4D8) | 0.00193 | 0.145 |
| HLA-DRB5_Q30154_146_TQTLQHHNLLVCSVNGFYPGSIEVR (UniProt Q30154) | -0.132 | -0.111 |
| HEATR3_Q7Z4Q2_57_ECACAGLAR (UniProt Q7Z4Q2) | -0.0844 | -0.181 |
| HEATR3_Q7Z4Q2_20_RPQFSPTGDCQAEAAAAANGTGGEEDDGPAAELLEK (UniProt Q7Z4Q2) | 0.15 | -0.284 |
| HK1_P19367_158_KLPVGFTFSFPCQQSK (UniProt P19367) | -0.196 | -0.0706 |
| HELQ_Q8TDG4_149_HATDFATENLCSESIK (UniProt Q8TDG4) | -0.104 | -0.000735 |
| HCFC2_Q9Y5Z7_215_MYVFGGMCGAR (UniProt Q9Y5Z7) | -0.0963 | -0.113 |
| HIF1AN_Q9NWT6_236_CILFPPDQFECLYPYPVHHPCDR (UniProt Q9NWT6) | 0.102 | 0.0986 |
| HCFC1_P51610_326_AGHCAVAINTR (UniProt P51610) | 0.0333 | 0.112 |
| HDDC2_Q7Z4H3_82_LALVHDMAECIVGDIAPADNIPK (UniProt Q7Z4H3) | 0.0684 | 0.121 |
| HDAC9_Q9UKV0_353_CETQTLR (UniProt Q9UKV0) | 0.0888 | 0.0579 |
| HBS1L_Q9Y450_469_GLCLLEQIDSFKPPQR (UniProt Q9Y450) | -0.0197 | -0.101 |

| Target | probe-labelled cysteine peptide fold change (10 µM) | probe-labelled cysteine peptide fold change (50 µM) |
| --- | --- | --- |
| HDAC6_Q9UBN7_752_GDPLGGCQVSPEGYAHLTHLLMGLASGR (UniProt Q9UBN7) | 0.145 | -0.232 |
| HDHD2_Q9H0R4_244_INPPPYLTCESFPHAVDHILQHLL (UniProt Q9H0R4) | 0.0838 | -0.0416 |
| HELLS_Q9NRZ9_836_ILENSEDSSPECLF (UniProt Q9NRZ9) | 0.112 | -0.291 |
| HERC2_O95714_3865_VLVALACDLELDTLPCCAETHK (UniProt O95714) | -0.19 | 0.12 |
| HK1_P19367_834_AAQLCGAGMAAVVDK (UniProt P19367) | 0.0124 | 0.0763 |
| HEATR5B_Q9P2D3_1262_IINLCENADQAHFDLALAR (UniProt Q9P2D3) | -0.117 | 0.001 |
| HK1_P19367_256_MCINTEWGAFGDDGSLEDIRTEFDREIDRGSLNPGK (UniProt P19367) | -0.265 | -0.146 |
| HEATR5B_Q9P2D3_518_TSPEAVSGYSFAMAALLGGVHQCPLGIPHAK (UniProt Q9P2D3) | 0.123 | -0.0773 |
| HDAC1_Q13547_284_CVEFVK (UniProt Q13547) | 0.0227 | 0.0441 |
| HLA-C_P04222_345+364_GGSCSQAASSNSAQGSDESLIACKA (UniProt P04222) | -0.224 | -0.356 |
| HLTF_Q14527_780_LILSSGSDEECAICLDSLTVPVITHCAHVFCK (UniProt Q14527) | -0.0046 | -0.0556 |
| HDHD2_Q9H0R4_194+206_GTGCEPEEAVMIGDDCRDDVGGAQDVGMLGILVK (UniProt Q9H0R4) | 0.128 | -0.396 |
| HEATR5B_Q9P2D3_718_SLCHYDDSVLLGSWLQETDHK (UniProt Q9P2D3) | 0.13 | -0.0436 |
| HLA-C_P04222_364_GGSCSQAASSNSAQGSDESLIACKA (UniProt P04222) | -0.294 | -0.243 |
| HCFC1_P51610_149_CYLFGGLANDSEDPK (UniProt P51610) | 0.0473 | 0.173 |
| HERPUD1_Q15011_68_LLLDHQCLR (UniProt Q15011) | 0.113 | 0.348 |
| HERC2_O95714_2881_TININPSDTTVPLLNDCTEYHR (UniProt O95714) | 0.0209 | 0.194 |
| HEATR5B_Q9P2D3_1137_TDIHCR (UniProt Q9P2D3) | -0.0367 | -0.217 |
